Data source: PubChem BioAssay AID1053208 (Peter MacCallum Cancer Centre, 2014)

Screen: 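Find knock-downs that sensitise mouse osteosarcoma cells to doxorubicin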 (primary screen)
Cell system: mouse osteosarcoma cells, early-passage culture from an engineered mouse model of fibroblastic bone tumour
Reagent: siRNA pool against mouse genes, 40 nM
Timing: about 120 h (48 h before drug, then 72 h with drug)
Treatment: doxorubicin 100 nM for 72 h, roughly 30-40% inhibitory dose
Read-out: 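Viability read as ATP luminescence after 72 h of 100 nM doxorubicin or none, duplicate wells averaged, scaled to non-targeting siRNA, then expressed as robust z-scores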
Reading the numbers: viability z-score with doxorubicin: higher = more viable cells under doxorubicin; viability z-score without drug: higher = more viable cells with knock-down alone
Call rule: 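Called active if knock-down leaves viability unchanged without drug (z within -2 to 2) but lowers it with doxorubicin (z at or under -2)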
Here is one part, drawn at random, of about 17,000 deposited reagents. In the full data, 788 (4.7%) were called active. 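Calls rest on z-score classes alone; an extra cut-off of viability at most 70% of control was not applied to them.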 Further read-outs or replicates are left out here. Reagent sequences are not shown.

| target gene | combined z-score class | viability z-score with doxorubicin | viability z-score without drug | activity call |
| --- | --- | --- | --- | --- |
| Snrpb | low cell count with doxorubicin only | -3.82 | -0.67 | active |
| Or7e173 | no change with or without drug | -0.79 | -0.17 | inactive |
| Cgref1 | no change with or without drug | -0.45 | 0.51 | inactive |
| Aptx | no change with or without drug | 1.12 | -0.84 | inactive |
| Or10d4b | no change with or without drug | -1.69 | -1.52 | inactive |
| Nlrp3 | no change with or without drug | 0 | 0.67 | inactive |
| Pecam1 | no change with or without drug | 1.46 | 0.17 | inactive |
| Agap1 | no change with or without drug | -1.12 | -1.18 | inactive |
| Ybx1 | no change with or without drug | 1.01 | 1.18 | inactive |
| Trmt44 | no change with or without drug | 0.22 | 1.52 | inactive |
| Tmem268 | low cell count with and without drug | -2.36 | -3.04 | inactive |
| Ces1d | no change with or without drug | 0.67 | -0.17 | inactive |
| Wnt2 | high cell count without drug only | -0.22 | 2.19 | inactive |
| Tsc1 | no change with or without drug | 0 | 0.84 | inactive |
| BC043934 | low cell count with and without drug | -2.59 | -2.53 | inactive |
| Ccdc117 | no change with or without drug | 0.22 | 0.84 | inactive |
| Ifna2 | no change with or without drug | 0.9 | -0.84 | inactive |
| Alas2 | no change with or without drug | 0.22 | -1.35 | inactive |
| Or5p70 | low cell count without drug only | -1.35 | -3.37 | inactive |
| Zfand2b | high cell count without drug only | 0.45 | 2.19 | inactive |
| Rraga | no change with or without drug | -1.57 | -0.51 | inactive |
| Fbxl7 | no change with or without drug | -0.67 | 0.84 | inactive |
| Ppcdc | no change with or without drug | 1.12 | 0.51 | inactive |
| Ncstn | low cell count with doxorubicin only | -2.25 | -1.69 | active |
| Rbpjl | no change with or without drug | 0 | -0.34 | inactive |
| Fbxw17 | low cell count with doxorubicin only | -2.02 | -0.84 | active |
| Cnksr2 | no change with or without drug | 0 | -0.17 | inactive |
| S100a14 | no change with or without drug | -0.56 | 0.34 | inactive |
| Prrt3 | no change with or without drug | -0.22 | 0.17 | inactive |
| Or52b2 | no change with or without drug | -0.67 | -0.17 | inactive |
| Nlrp12 | no change with or without drug | 1.35 | 1.01 | inactive |
| Fam178b | no change with or without drug | 0 | 0.51 | inactive |
| C230086A09RIK | no change with or without drug | 0.79 | 0.17 | inactive |
| Cxcl11 | no change with or without drug | -1.12 | 0 | inactive |

Reformatted: entries from further up.
Wnt2 | combined z-score class: high cell count without drug only; viability z-score with doxorubicin: -0.22; viability z-score without drug: 2.19; activity call: inactive
Tsc1 | combined z-score class: no change with or without drug; viability z-score with doxorubicin: 0; viability z-score without drug: 0.84; activity call: inactive
